The chains are these.
T1: SWC4 (S. pombe) (S. pombe) (UniProt O14308)
T1 sequence: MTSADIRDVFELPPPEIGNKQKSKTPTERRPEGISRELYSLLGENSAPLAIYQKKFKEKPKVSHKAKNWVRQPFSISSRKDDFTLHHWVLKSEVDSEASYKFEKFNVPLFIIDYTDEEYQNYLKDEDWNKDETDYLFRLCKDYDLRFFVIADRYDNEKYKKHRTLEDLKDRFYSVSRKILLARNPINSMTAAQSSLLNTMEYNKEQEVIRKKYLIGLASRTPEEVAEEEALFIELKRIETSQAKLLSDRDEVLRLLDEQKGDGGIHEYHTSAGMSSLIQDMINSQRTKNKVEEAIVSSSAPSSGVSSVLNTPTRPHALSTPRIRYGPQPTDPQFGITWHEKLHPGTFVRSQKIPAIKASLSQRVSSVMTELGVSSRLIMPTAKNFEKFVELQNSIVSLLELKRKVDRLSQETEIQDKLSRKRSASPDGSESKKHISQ

T2: YAF9 (S. pombe) (S. pombe) (UniProt Q10319)
T2 sequence: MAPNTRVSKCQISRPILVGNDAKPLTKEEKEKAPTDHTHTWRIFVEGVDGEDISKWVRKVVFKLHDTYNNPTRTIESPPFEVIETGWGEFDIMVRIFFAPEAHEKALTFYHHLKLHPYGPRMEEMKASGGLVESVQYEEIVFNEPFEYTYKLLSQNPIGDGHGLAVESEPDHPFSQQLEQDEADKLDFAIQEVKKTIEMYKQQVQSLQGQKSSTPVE

T3: Sc_Rpd3p (S. cerevisiae) (UniProt P32561)
T3 sequence: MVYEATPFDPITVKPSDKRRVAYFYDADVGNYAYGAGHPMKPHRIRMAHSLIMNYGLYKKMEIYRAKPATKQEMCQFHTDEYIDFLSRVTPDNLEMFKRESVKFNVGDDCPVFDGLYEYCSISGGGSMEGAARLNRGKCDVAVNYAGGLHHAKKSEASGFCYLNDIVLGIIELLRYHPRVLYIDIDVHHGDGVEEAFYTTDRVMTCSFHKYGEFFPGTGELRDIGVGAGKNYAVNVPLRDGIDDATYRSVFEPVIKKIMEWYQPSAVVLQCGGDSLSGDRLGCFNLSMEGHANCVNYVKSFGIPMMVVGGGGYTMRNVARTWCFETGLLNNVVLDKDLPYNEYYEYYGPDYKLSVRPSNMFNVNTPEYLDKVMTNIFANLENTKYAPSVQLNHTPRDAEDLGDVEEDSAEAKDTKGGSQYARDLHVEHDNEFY

B1: SWC2 (S. pombe) (protein, UniProt Q9P790 1-316)
chain: MSATESLVAGRTRRANAGNKMRELLEKEHLRMTQQNAEIEKEDEEYNIEEEEEAERDIEISSESSDEEAELKKLEEEGEEVEKILRDEERIKKRKIQKNRAANLQRTLQPPKRPTPSAASEVPKKKYKKIKVDPSARRTSSRMHTVLMAQSTETRLQEAKPRRKYTVSASANRQKGTMTQQQRFEEAAKTEAQNLSSLRNYVHLEEQRRLRLKRNAAKHRQLREPILKFISKTISTEDGREASNYYVAPLEHPLCHSAPPLQMPQHRAVECVITGKPAIYLDPVTQLPISNVQAFQQVREVYNQRYSWSAMLNLFH
B2: Sc_Cti6 (protein, UniProt Q08923 1-506)
chain: MESTAIVPKGPVVGSEDMEKAEVIASGSTDIISTTSTATTTAAIGSVQEESVKQEDVPMEGGEGEVEEEEGETRCICGELDTPDDSGFFIQCEQCSSWQHGYCVSITQDNAPDKYWCEQCRPELHQLFTTDTGEARSIYKPVQEKRRQSRRKARSAAASKSHAANEAEKSPRNTSNTDDNVDDIGDEEDEVEDEASAVALAKDGNTRSSRRRRRNSMDDASTDQYSLDPGDSDKKLLDRKRATFMAREEKQYQRMLEKALKESRRTSHQEDPESYENDADIYQGDTDNHNGTTRLQTDVMLTEGKPDSVTNDDMKESLRPSKEQSMEKTNDVEKEASQEKESSTGSAQDTEKTDEPILPLTSISSSEDDSRKASSRGSKRVSKPARKGNRTRRSNTSSDTNQNRRSADIGTDKPVKPRLPPQRTSLNEMRRRVSAILEFISRTQWELSEDQSDREEFVRFVENQHFVEKVDTIYNGYNESLSMMDDLTRELLLWEKKYSNNTNAIQ
B3: Sc_Ume1p (protein, UniProt Q03010 1-460)
chain: MSTLDIAEDNKIKNEEFKIWKKSIPSLYQHISSLKPIFGSGVDESPSTLRSIVFTNDSSCNKSKGVLSVPLLYSQGSEIFEVDCIVPLGLHYKKPESISEPLVQPDYTMESQKVEQTVLIPKWEFKGETIAKMIYVDNSEINVKVIALSTNGSLAWFREGVKSPVYTMMEPSTSLSSASSGNQNKPCVDFAISNDSKTLTVTKEKHLDNENATIKLIDNSGKIGEVLRTIPVPGIKNIQEIKFLNNQIFATCSDDGIIRFWGNEIGKKPLWILNDSLDGKTTCFAASPFVDTLFMTGTSGGALKVWDIRAVIALGDADAELNINQGHNKVNELFKVHHFYSEQVSKIEFSSISPMEVVTIGGLGNVYHWNFEPVFAIYNEIHEDFQGIISDELEAESMAFYHTEGCRREIGENNKVNTVAYHKYIEDLVATVDSDGLLTVYKPFTGKVLDGSREVGAAKS
B4: SAP30 (S. cerevisiae) (protein, UniProt P38429 1-201)
chain: MARPVNTNAETESRGRPTQGGGYASNNNGSCNNNNGSNNNNNNNNNNNNNSNNSNNNNGPTSSGRTNGKQRLTAAQQQYIKNLIETHITDNHPDLRPKSHPMDFEEYTDAFLRRYKDHFQLDVPDNLTLQGYLLGSKLGAKTYSYKRNTQGQHDKRIHKRDLANVVRRHFDEHSIKETDCIPQFIYKVKNQKKKFKMEFRG
B5: UME6 (S. cerevisiae) (protein, UniProt P39001 1-836)
chain: MLDKARSQSKHMDESNAAASLLSMETTANNHHYLHNKTSRATLMNSSQDGKKHAEDEVSDGANSRHPTISSASIESLKTTYDENPLLSIMKSTCAPNNTPVHTPSGSPSLKVQSGGDIKDDPKENDTTTTTNTTLQDRRDSDNAVHAAASPLAPSNTPSDPKSLCNGHVAQATDPQISGAIQPQYTATNEDVFPYSSTSTNSNTATTTIVAGAKKKIHLPPPQAPAVSSPGTTAAGSGAGTGSGIRSRTGSDLPLIITSANKNNGKTTNSPMSILSRNNSTNNNDNNSIQSSDSRESSNNNEIGGYLRGGTKRGGSPSNDSQVQHNVHDDQCAVGVAPRNFYFNKDREITDPNVKLDENESKINISFWLNSKYRDEAYSLNESSSNNASSNTDTPTNSRHANTSSSITSRNNFQHFRFNQIPSQPPTSASSFTSTNNNNPQRNNINRGEDPFATSSRPSTGFFYGDLPNRNNRNSPFHTNEQYIPPPPPKYINSKLDGLRSRLLLGPNSASSSTKLDDDLGTAAAVLSNMRSSPYRTHDKPISNVNDMNNTNALGVPASRPHSSSFPSKGVLRPILLRIHNSEQQPIFESNNSTAVFDEDQDQNQDLSPYHLNLNSKKVLDPTFESRTRQVTWNKNGKRIDRRLSAPEQQQQLEVPPLKKSRRSVGNARVASQTNSDYNSLGESSTSSAPSSPSLKASSGLAYTADYPNATSPDFAKSKGKNVKPKAKSKAKQSSKKRPNNTTSKSKANNSQESNNATSSTSQGTRSRTGCWICRLRKKKCTEERPHCFNCERLKLDCHYDAFKPDFVSDPKKKQMKLEEIKKKTKEAKRRAMKKK
B6: DEP1 (S. cerevisiae) (protein, UniProt P31385 1-405)
chain: MSQQTPQESEQTTAKEQDLDQESVLSNIDFNTDLNHNLNLSEYCISSDAGTEKMDSDEEKSLANLPELKYAPKLSSLVKQETLTESLKRPHEDEKEAIDEAKKMKVPGENEDESKEEEKSQELEEAIDSKEKSTDARDEQGDEGDNEEENNEEDNENENEHTAPPALVMPSPIEMEEQRMTALKEITDIEYKFAQLRQKLYDNQLVRLQTELQMCLEGSHPELQVYYSKIAAIRDYKLHRAYQRQKYELSCINTETIATRTFIHQDFHKKVTDLRARLLNRTTQTWYDINKERRDMDIVIPDVNYHVPIKLDNKTLSCITGYASAAQLCYPGEPVAEDLACESIEYRYRANPVDKLEVIVDRMRLNNEISDLEGLRKYFHSFPGAPELNPLRDSEINDDFHQWAQ
B7: Sc_Rco1 (protein, UniProt Q04779 1-684)
chain: MDTSKKDTTRSPSHSNSSSPSSSSLSSSSSKEKKRPKRLSSQNVNYDLKRRKIITSEGIERSFKNEHSNLAVEDNIPEEEPKELLEKDSKGNIIKLNEPSTISEDSKVSVTGLPLNKGPSEKIKRESLWNYRKNLGGQSNNSEMTLVPSKRFTQVPKNFQDLNRNDLKTFLTENMTEESNIRSTIGWNGDIINRTRDREPESDRDNKKLSNIRTKIILSTNATYDSKSKLFGQNSIKSTSNASEKIFRDKNNSTIDFENEDFCSACNQSGSFLCCDTCPKSFHFLCLDPPIDPNNLPKGDWHCNECKFKIFINNSMATLKKIESNFIKQNNNVKIFAKLLFNIDSHNPKQFQLPNYIKETFPAVKTGSRGQYSDENDKIPLTDRQLFNTSYGQSITKLDSYNPDTHIDSNSGKFLICYKCNQTRLGSWSHPENSRLIMTCDYCQTPWHLDCVPRASFKNLGSKWKCPLHSPTKVYKKIHHCQEDNSVNYKVWKKQRLINKKNQLYYEPLQKIGYQNNGNIQIIPTTSHTDYDFNQDFKITQIDENSIKYDFFDKIYKSKMVQKRKLFQFQESLIDKLVSNGSQNGNSEDNMVKDIASLIYFQVSNNDKSSNNKSASKSNNLRKLWDLKELTNVVVPNELDSIQFNDFSSDEIKHLLYLKKIIESKPKEELLKFLNIENPENQSE
B8: RXT3 (S. cerevisiae) (protein, UniProt Q07458 1-294)
chain: MSVSEQDPNRAYRETQSQIYKLQETLLNSARTKNKQEEGQESNTHSFPEQYMHYQNGRNSAYDLPNVSSQSVLAFTEKHYPNKLKNLGTLYYNRFKEGSFDEDSTSYSDRHSFPYNLYDNTLPPPFLPAIGIQNINNIATLKITYEDIQASFNNIESPRKRNNEIWGCDIYSDDSDPILVLRHCGFKIGAPSGGSFHKLRRTPVNVTNQDNVTGNLPLLEGTPFDLEVELLFLPTLQKYPSVKRFDITSREWGSEATVIHDGLSYGIYSIVIKQRLDRDKPHEPNGYIKNLKWT
B9: Sc_Pho23 (protein, UniProt P50947 1-330)
chain: MSSPANLFPGLNDITDVLEEFPLATSRYLTLLHEIDAKCVHSMPNLNERIDKFLKKDFNKDHQTQVRLLNNINKIYEELMPSLEEKMHVSSIMLDNLDRLTSRLELAYEVAIKNTEIPRGLRLGVDNHPAMHLHHELMEKIESKSNSKSSQALKSESRREAMAANRRQGEHYSASTHQQDDSKNDANYGGSRHESQDHTGNNTNSRKRANAANTNNADPETKKRKRRVATTAVSPSTISTATAVNNGRIGTSTASRGVSSVGNSNNSRISRPKTNDYGEPLYCYCNQVAYGEMVGCDGADCELEWFHLPCIGLETLPKGKWYCDDCKKKL
B10: SDS3 (S. cerevisiae) (protein, UniProt P40505 1-327)
chain: MAIQKVSNKDLSRKDKRRFNIESKVNKIYQNFYSERDNQYKDRLTALQTDLTSLHQGDNGQYARQVRDLEEERDLELVRLRLFEEYRVSRSGIEFQEDIEKAKAEHEKLIKLCKERLYSSIEQKIKKLQEERLLMDVANVHSYAMNYSRPQYQKNTRSHTVSGWDSSSNEYGRDTANESATDTGAGNDRRTLRRRNASKDTRGNNNNQDESDFQTGNGSGSNGHGSRQGSQFPHFNNLTYKSGMNSDSDFLQGINEGTDLYAFLFGEKNPKDNANGNEKKKNRGAQRYSTKTAPPLQSLKPDEVTEDISLIRELTGQPPAPFRLRSD

These are yes or no findings as the source states them, for the method shown. In cells and extracts the contact can be indirect. A yes stands for co-enrichment or nearness to the bait. Other partners may have been found.

In one experiment the target is T1, SWC4 (S. pombe) (S. pombe). Put plainly: affinity purification with mass spectrometry; TAP of baits TAP-tagged at their genes from S. pombe extracts; eluates on 6-18% gels, Coomassie, bands and slices identified by MALDI peptide mapping and LC-MS/MS; common background removed, A-index cut-off 1.75.
With B1, the binding result is reported as “binds”.

A further experiment addresses T2, YAF9 (S. pombe) (S. pombe). The description is as above.
Turning to B1, the binding result is reported as “binds”.

For the next experiment, the target named is T3, Sc_Rpd3p (S. cerevisiae). Kind of experiment: affinity purification with mass spectrometry; TAP of baits TAP-tagged at their genes from S. cerevisiae extracts; eluates on 6-18% gels, Coomassie, bands and slices identified by MALDI peptide mapping and LC-MS/MS; common background removed, A-index cut-off 1.75.
As for B2, the binding result is “binds”.

As to B3, the binding entry is “binds”.

For the molecule B4, the binding result is given as “binds”.

In the case of B5, the binding entry is given as “binds”.

Turning to B6, the binding entry was “binds”.

Regarding B7, the binding entry is given as “binds”.

Turning to B8, the binding result is recorded as “binds”.

On to B9, for which the binding result is on record as “binds”.

For B10, the binding entry was “binds”.

Source of the values: publication PMC2614481.
